Measured values: the supplement of paper PMC10849652
Some of the results follow.

By UniProt entry, the sequences of proteins in these tests, tags left out. Where a name states a change or a piece, a line headed by the entry shows the natural chain unless it says otherwise.
UniProt O43264: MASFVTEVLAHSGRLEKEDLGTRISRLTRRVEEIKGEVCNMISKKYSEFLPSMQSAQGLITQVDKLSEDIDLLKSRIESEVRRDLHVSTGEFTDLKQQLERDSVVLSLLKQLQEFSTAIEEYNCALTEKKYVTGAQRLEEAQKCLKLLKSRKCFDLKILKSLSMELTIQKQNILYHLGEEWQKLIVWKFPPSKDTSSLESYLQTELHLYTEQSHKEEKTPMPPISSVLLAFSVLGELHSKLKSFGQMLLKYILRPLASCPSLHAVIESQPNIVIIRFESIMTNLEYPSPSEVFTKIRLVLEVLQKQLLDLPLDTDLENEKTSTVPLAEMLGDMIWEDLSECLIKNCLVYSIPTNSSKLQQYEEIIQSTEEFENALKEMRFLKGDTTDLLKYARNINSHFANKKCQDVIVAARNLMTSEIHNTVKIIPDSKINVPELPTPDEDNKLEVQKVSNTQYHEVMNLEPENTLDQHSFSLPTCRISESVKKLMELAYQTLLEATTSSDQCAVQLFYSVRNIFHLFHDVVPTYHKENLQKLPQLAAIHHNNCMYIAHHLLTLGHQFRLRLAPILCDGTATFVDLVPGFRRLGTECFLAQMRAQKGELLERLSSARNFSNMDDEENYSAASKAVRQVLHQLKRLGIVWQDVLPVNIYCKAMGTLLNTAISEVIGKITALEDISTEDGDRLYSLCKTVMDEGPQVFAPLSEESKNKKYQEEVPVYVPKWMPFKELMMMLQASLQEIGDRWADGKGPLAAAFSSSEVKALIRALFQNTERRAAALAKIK
UniProt Q9UK10: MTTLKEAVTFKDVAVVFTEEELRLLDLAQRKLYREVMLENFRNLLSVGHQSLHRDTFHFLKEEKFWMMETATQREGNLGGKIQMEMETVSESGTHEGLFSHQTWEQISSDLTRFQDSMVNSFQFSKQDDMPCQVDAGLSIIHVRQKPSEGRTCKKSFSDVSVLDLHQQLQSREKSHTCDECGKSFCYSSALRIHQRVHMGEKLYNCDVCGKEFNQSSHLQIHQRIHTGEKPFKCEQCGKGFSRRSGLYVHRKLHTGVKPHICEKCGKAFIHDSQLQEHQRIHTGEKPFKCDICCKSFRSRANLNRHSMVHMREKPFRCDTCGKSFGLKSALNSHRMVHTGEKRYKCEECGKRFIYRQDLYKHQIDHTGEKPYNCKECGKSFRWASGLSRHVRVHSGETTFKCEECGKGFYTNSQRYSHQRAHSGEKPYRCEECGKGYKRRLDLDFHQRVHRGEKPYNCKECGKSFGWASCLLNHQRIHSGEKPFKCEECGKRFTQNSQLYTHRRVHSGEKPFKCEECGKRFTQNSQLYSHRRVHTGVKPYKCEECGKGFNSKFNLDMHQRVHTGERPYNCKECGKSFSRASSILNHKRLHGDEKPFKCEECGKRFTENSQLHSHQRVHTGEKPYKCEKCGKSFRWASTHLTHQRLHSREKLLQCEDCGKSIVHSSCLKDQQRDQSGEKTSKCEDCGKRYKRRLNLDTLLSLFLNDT
UniProt Q8NHG8: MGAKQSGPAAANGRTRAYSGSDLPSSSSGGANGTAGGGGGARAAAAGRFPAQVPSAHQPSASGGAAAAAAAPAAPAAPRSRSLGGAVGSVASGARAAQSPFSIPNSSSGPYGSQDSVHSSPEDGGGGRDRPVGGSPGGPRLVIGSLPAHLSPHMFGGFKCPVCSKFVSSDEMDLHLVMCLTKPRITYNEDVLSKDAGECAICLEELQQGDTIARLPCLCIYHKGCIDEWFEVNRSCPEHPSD
UniProt Q16600: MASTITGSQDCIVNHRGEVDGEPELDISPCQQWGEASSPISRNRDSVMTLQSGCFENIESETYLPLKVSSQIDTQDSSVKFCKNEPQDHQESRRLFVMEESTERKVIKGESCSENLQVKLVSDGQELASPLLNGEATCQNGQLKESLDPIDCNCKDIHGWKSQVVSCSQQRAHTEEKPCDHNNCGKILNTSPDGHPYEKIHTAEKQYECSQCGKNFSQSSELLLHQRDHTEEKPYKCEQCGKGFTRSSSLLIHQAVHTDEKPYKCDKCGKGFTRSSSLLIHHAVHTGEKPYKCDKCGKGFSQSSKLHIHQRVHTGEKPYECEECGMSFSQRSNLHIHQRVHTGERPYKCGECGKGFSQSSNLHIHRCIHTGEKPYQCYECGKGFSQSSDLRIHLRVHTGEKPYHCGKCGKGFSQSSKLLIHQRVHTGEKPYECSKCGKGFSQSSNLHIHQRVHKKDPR
UniProt O43670: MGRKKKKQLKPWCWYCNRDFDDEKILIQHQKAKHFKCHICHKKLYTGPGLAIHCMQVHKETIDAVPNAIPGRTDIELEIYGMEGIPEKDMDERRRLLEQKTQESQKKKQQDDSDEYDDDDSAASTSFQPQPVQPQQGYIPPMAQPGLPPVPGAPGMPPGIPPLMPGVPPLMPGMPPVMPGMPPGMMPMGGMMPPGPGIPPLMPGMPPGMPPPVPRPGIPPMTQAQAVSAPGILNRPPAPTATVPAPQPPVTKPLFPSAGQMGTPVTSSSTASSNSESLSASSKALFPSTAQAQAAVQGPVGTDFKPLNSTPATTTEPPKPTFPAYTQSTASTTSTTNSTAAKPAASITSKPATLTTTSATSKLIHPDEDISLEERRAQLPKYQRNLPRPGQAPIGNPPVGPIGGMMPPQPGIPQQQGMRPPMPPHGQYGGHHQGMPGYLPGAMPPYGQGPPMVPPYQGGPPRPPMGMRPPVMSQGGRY
UniProt Q9ULJ6: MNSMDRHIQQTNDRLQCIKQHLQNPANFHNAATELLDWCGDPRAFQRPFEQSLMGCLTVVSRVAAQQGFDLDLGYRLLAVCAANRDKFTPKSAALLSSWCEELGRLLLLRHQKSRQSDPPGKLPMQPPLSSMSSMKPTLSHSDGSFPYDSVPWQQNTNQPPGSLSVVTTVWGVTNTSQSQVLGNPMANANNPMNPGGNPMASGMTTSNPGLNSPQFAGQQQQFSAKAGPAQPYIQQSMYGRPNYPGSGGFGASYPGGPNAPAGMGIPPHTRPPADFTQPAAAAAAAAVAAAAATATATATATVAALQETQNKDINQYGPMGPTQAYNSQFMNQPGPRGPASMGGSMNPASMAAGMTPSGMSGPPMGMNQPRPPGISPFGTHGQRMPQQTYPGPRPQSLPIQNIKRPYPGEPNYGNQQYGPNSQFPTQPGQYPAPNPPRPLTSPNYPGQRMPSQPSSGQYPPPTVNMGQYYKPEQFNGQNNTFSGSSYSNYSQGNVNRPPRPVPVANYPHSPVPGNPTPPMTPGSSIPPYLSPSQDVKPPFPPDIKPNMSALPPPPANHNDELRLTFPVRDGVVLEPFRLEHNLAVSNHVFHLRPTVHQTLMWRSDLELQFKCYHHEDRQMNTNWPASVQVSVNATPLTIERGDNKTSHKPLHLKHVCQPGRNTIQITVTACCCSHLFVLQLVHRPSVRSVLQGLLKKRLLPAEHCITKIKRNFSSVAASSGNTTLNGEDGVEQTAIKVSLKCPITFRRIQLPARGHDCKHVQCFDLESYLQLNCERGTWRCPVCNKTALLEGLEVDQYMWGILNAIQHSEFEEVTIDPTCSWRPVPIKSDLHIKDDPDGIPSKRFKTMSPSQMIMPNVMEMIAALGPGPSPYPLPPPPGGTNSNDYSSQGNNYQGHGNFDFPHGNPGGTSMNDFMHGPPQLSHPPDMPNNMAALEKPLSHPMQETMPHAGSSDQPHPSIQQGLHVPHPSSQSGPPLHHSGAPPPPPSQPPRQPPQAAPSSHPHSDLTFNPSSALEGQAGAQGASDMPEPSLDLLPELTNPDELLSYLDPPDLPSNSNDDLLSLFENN
UniProt Q8NAF0: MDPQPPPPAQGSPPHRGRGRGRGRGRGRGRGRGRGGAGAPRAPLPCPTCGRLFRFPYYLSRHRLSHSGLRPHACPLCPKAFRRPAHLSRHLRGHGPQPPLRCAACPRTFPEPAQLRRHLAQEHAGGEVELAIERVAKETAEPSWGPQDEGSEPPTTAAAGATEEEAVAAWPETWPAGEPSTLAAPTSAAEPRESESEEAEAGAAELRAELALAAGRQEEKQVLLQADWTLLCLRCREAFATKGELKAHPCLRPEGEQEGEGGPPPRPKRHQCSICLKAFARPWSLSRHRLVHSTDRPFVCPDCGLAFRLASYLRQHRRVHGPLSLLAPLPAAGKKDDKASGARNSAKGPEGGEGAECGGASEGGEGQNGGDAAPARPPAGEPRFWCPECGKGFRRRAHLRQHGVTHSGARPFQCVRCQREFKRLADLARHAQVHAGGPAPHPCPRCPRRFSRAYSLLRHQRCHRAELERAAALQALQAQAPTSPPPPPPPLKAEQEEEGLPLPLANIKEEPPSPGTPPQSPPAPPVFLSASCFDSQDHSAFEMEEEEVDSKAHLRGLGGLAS
UniProt Q03936: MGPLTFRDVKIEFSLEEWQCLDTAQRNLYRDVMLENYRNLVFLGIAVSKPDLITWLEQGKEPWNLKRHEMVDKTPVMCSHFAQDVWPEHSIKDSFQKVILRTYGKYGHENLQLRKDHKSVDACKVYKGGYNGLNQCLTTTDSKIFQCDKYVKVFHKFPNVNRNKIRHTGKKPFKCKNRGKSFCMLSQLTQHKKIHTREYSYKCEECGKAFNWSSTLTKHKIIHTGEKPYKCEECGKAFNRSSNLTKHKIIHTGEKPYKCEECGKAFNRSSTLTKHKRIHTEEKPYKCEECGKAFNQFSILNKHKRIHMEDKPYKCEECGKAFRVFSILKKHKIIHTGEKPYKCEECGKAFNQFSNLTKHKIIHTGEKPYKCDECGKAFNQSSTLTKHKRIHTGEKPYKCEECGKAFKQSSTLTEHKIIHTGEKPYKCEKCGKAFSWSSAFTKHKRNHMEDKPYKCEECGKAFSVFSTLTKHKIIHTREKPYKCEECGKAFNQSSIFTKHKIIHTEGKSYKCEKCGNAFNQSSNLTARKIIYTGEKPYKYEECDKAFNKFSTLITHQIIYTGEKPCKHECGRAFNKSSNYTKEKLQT
UniProt O00488: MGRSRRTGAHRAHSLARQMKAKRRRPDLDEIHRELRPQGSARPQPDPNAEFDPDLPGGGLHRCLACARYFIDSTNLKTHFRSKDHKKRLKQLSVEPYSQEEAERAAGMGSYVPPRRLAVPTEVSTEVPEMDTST
UniProt O95218: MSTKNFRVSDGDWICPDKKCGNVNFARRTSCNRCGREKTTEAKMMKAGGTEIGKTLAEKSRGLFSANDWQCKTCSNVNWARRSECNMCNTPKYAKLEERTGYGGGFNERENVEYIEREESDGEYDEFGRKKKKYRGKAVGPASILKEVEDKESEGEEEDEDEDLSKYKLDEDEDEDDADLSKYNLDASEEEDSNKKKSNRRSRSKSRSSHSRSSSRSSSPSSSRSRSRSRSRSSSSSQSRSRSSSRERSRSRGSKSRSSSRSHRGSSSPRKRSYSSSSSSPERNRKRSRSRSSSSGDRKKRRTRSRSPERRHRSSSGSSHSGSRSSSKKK
UniProt Q9BRR0: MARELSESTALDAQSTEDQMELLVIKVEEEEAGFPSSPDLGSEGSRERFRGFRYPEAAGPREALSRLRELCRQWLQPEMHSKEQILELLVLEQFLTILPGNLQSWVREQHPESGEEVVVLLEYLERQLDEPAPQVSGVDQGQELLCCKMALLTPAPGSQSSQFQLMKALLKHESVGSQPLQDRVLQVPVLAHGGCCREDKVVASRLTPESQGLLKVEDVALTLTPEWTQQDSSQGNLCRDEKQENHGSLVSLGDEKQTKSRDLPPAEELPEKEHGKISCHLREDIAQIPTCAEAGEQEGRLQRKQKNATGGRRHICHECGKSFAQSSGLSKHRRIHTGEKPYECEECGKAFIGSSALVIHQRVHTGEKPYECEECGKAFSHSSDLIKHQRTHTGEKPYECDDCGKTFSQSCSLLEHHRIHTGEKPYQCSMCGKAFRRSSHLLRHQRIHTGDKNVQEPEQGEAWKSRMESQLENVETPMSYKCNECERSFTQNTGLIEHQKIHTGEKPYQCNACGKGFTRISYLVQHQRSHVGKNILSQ
UniProt Q9H5H4: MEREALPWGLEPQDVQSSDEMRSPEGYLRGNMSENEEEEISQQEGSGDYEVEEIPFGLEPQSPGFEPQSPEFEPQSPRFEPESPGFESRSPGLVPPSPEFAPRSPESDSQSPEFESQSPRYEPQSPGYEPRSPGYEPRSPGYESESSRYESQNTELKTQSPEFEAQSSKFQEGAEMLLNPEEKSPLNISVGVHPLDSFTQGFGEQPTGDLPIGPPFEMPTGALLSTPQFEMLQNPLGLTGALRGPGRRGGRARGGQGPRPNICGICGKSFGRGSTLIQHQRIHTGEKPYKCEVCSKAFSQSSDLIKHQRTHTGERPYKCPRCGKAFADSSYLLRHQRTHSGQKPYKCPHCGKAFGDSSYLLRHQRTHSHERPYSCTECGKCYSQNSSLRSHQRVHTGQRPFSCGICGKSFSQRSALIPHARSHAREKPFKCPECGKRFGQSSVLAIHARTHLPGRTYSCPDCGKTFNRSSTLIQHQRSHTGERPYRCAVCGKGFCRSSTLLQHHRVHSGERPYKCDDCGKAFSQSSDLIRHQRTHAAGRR

What was measured:
Assay in all cases: log2 fold change, soluble protein after heating vs DMSO (PISA); higher = thermal stabilisation; K562 lysate, 10 uM; active = over 0.2 and 3.5 SD of the protein, either way, in both replicates (recomputed)
vemurafenib = compound: CCCS(=O)(=O)Nc1ccc(F)c(C(=O)c2c[nH]c3ncc(-c4ccc(Cl)cc4)cc23)c1F [vemurafenib]
Outline: (§1)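 To prepare the extract, K562 pellets were dounce-homogenised in PBS pH 7.4 with 1 mM MgCl2, giving crude material at 1 mg/mL protein. This was treated with 10 μM compound for 30 min, then heated in aliquots for 3 min over 48°C-58°C before pooling and addition of NP-40 to 0.5% at 4°C. Centrifugation at 21,000xg for 90 min left soluble protein in the supernatant, which TMTpro 16plex LC-MS/MS quantified with equalised channel sums. Results are log-two fold changes in thermal stability compared with solvent controls, from duplicates.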

[1] = compound: CCCS(=O)(=O)Nc1ccc(F)c(C(=O)c2c[nH]c3ncc(Cl)cc23)c1F
Outline: as §1

barasertib = compound: CCN(CCCOc1ccc2c(Nc3cc(CC(=O)Nc4cccc(F)c4)[nH]n3)ncnc2c1)CCOP(=O)(O)O [barasertib]
Outline: as §1

[2] = compound: CC[C@@H]1C(=O)N(C)c2cnc(Nc3ccc(C(=O)NC4CCN(C)CC4)cc3OC)nc2N1C1CCCC1
Outline: as §1

volasertib = compound: CC[C@@H]1C(=O)N(C)c2cnc(Nc3ccc(C(=O)N[C@H]4CC[C@H](N5CCN(CC6CC6)CC5)CC4)cc3OC)nc2N1C(C)C [volasertib]
Outline: as §1

[3] = compound: CCn1c(C(=O)N(C2CC2)C2CC2)cc2c3c(ncn3C)c(Nc3cc(C)n(C)n3)nc21
Outline: as §1

[4] = compound: CCn1cc(-c2ccnc3[nH]c(-c4cccc(CN(C)C)c4)cc23)c(-c2ccc(NC(=O)N(C)C)cc2)n1
Outline: as §1

[5] = compound: CN1CCC(CNc2ccc3ncc(-c4cccc(OC(F)(F)F)c4)n3n2)CC1
Outline: as §1

saracatinib = compound: CN1CCN(CCOc2cc(OC3CCOCC3)c3c(Nc4c(Cl)ccc5c4OCO5)ncnc3c2)CC1 [saracatinib]
Outline: as §1

sotrastaurin = compound: CN1CCN(c2nc(C3=C(c4c[nH]c5ccccc45)C(=O)NC3=O)c3ccccc3n2)CC1 [sotrastaurin]
Outline: as §1

alvocidib = compound: CN1CC[C@H](c2c(O)cc(O)c3c(=O)cc(-c4ccccc4Cl)oc23)[C@H](O)C1 [alvocidib]
Outline: as §1

Tubastatin A = compound: CN1CCc2c(c3ccccc3n2Cc2ccc(C(=O)NO)cc2)C1 [Tubastatin A]
Outline: as §1

[6] = compound: CNC(=O)C1=CC=CC=C1NC2=NC(=NC=C2Cl)NC3=C(C=C(C=C3)N4CCOCC4)OC
Outline: as §1

defactinib = compound: CNC(=O)c1ccc(Nc2ncc(C(F)(F)F)c(NCc3nccnc3N(C)S(C)(=O)=O)n2)cc1 [defactinib]
Outline: as §1

[7] = compound: CNc1nc(-c2ccc3c(N)n[nH]c3c2)cc(N2C[C@@H](C(=O)NC3CCCCC3)CC[C@H]2C)n1
Outline: as §1

encorafenib = compound: COC(=O)N[C@@H](C)CNc1nccc(-c2cn(C(C)C)nc2-c2cc(Cl)cc(NS(C)(=O)=O)c2F)n1 [encorafenib]
Outline: as §1

[8] = compound: COC(=O)[C@H](CCSC)NC(=O)C1=C(C=C(C=C1)NC[C@H](CS)N)C2=CC=CC=C2
Outline: as §1

alisertib = compound: COc1cc(Nc2ncc3c(n2)-c2ccc(Cl)cc2C(c2c(F)cccc2OC)=NC3)ccc1C(=O)O [alisertib]
Outline: as §1

[9] = compound: COc1cc2nc(-c3cc(F)ccc3O)nc(N[C@@H]3CNC[C@H]3C(C)(C)O)c2cc1OC
Outline: as §1

gefitinib = compound: COc1cc2ncnc(Nc3ccc(F)c(Cl)c3)c2cc1OCCCN1CCOCC1 [gefitinib]
Outline: as §1

Measured: log2 fold change

ZNF428 (UniProt M0QXZ5)
inactive: vemurafenib 0.018 | [1] 0.022 | barasertib 0.072 | [2] 0.009 | volasertib 0.039 | [3] 0.059 | [4] 0.071 | [5] 0.001 | saracatinib 0.018 | sotrastaurin -0.089 | alvocidib 0.035 | Tubastatin A 0.005 | [6] -0.061 | defactinib 0.052 | [7] 0.172 | encorafenib -0.036 | [8] -0.072 | alisertib -0.151 | [9] -0.028 | gefitinib 0.119

ZNF451 (UniProt Q9Y4E5)
inactive: vemurafenib -0.013 | [1] 0.02 | barasertib 0.019 | [2] 0.066 | volasertib -0.063 | [3] -0.022 | [4] -0.047 | [5] -0.048 | saracatinib 0.039 | sotrastaurin 0.002 | alvocidib -0.011 | Tubastatin A -0.121 | [6] 0.027 | defactinib 0 | [7] -0.014 | encorafenib -0.03 | [8] 0.07 | alisertib 0.008 | [9] -0.012 | gefitinib -0.009

ZNF629 (UniProt Q9UEG4)
inactive: vemurafenib 0.104 | [1] 0.016 | barasertib 0.128 | [2] 0.144 | volasertib -0.014 | [3] -0.001 | [4] -0.013 | [5] -0.072 | saracatinib -0.033 | sotrastaurin 0.042 | alvocidib -0.011 | Tubastatin A -0.028 | [6] 0.043 | defactinib 0.064 | [7] 0.045 | encorafenib -0.014 | [8] -0.086 | alisertib -0.084 | [9] -0.013 | gefitinib -0.064

ZW10 (UniProt O43264)
inactive: vemurafenib 0.027 | [1] 0.017 | barasertib 0.029 | [2] -0.019 | volasertib -0.06 | [3] 0.031 | [4] -0.04 | [5] -0.078 | saracatinib 0.034 | sotrastaurin 0.021 | alvocidib -0.003 | Tubastatin A -0.032 | [6] 0.003 | defactinib 0.035 | [7] -0.015 | encorafenib 0.047 | [8] 0.017 | alisertib -0.001 | [9] 0.017 | gefitinib -0.019

ZNF225 (UniProt Q9UK10)
inactive: vemurafenib 0.429 | barasertib 0.048 | [2] -0.018 | [3] -0.361 | saracatinib -0.05 | Tubastatin A 0.282 | [6] -0.088 | defactinib -0.172 | [7] 0.735 | encorafenib -0.023 | [8] 0.042

ZNRF2 (UniProt Q8NHG8)
inactive: vemurafenib -0.132 | [1] 0.019 | barasertib 0 | [2] 0.059 | volasertib -0.012 | [3] -0.012 | [4] 0.224 | [5] -0.097 | sotrastaurin -0.142 | alvocidib 0.032 | Tubastatin A 0.11 | defactinib 0.121 | encorafenib 0.052 | [8] -0.039 | alisertib -0.007 | [9] 0.002 | gefitinib -0.119

ZNF239 (UniProt Q16600)
inactive: vemurafenib -0.034 | barasertib 0.015 | [2] 0.178 | [3] 0.018 | [4] 0.102 | [5] -0.124 | sotrastaurin 0.001 | alvocidib 0 | Tubastatin A 0.043 | [6] -0.034 | defactinib 0.08 | encorafenib 0.058 | [8] -0.008 | alisertib -0.039 | gefitinib -0.021

ZNF207 isoform 2 (UniProt O43670)
inactive: vemurafenib -0.04 | [1] 0.024 | barasertib -0.112 | [2] 0.182 | volasertib 0.073 | [3] -0.217 | saracatinib 0.08 | sotrastaurin 0.092 | Tubastatin A 0.015 | [6] 0.023 | defactinib 0.024 | [7] 0.055 | encorafenib -0.002 | [8] -0.127 | alisertib -0.01 | [9] 0.039 | gefitinib -0.1

ZMIZ1 (UniProt Q9ULJ6)
inactive: vemurafenib -0.014 | [1] 0.002 | barasertib 0.044 | [2] 0.01 | volasertib 0.004 | [3] -0.004 | [4] -0.198 | [5] 0.086 | saracatinib -0.011 | sotrastaurin 0.016 | alvocidib -0.079 | Tubastatin A -0.006 | [6] -0.001 | defactinib 0 | [7] 0.048 | encorafenib 0.057 | [8] -0.023 | alisertib -0.067 | [9] -0.009 | gefitinib 0.002

ZNF507 (UniProt Q8TCN5)
inactive: vemurafenib -0.055 | barasertib 0.043 | [2] 0.144 | [3] 0.044 | [4] 0.035 | [5] -0.045 | saracatinib 0.019 | sotrastaurin -0.034 | alvocidib -0.032 | Tubastatin A -0.029 | [6] -0.001 | defactinib -0.032 | [7] -0.039 | encorafenib -0.017 | [8] 0.08 | alisertib -0.015 | gefitinib 0.018

ZNF579 (UniProt Q8NAF0)
inactive: vemurafenib 0.021 | [1] 0.115 | barasertib -0.03 | [2] 0.042 | volasertib -0.027 | [3] 0.011 | [4] 0.037 | [5] -0.041 | saracatinib 0.081 | sotrastaurin -0.048 | alvocidib -0.044 | Tubastatin A 0.004 | [6] 0.022 | defactinib 0.202 | [7] 0.299 | encorafenib 0.051 | [8] 0.104 | alisertib -0.046 | [9] 0.065 | gefitinib -0.218

ZNF92 (UniProt Q03936)
inactive: vemurafenib 0.064 | [1] -0.142 | barasertib 0.168 | volasertib -0.029 | [3] -0.075 | [4] 0 | [5] -0.135 | saracatinib -0.06 | sotrastaurin -0.049 | alvocidib 0.124 | Tubastatin A -0.061 | [6] -0.095 | defactinib -0.092 | [7] -0.061 | alisertib 0.018 | [9] -0.09 | gefitinib -0.045

ZZZ3 (UniProt Q8IYH5)
inactive: vemurafenib 0.046 | barasertib -0.073 | [2] 0.065 | [3] 0.011 | [4] 0.108 | [5] -0.1 | saracatinib 0.009 | sotrastaurin 0 | alvocidib 0.017 | Tubastatin A -0.112 | [6] -0.155 | defactinib 0.03 | [7] 0.092 | encorafenib -0.024 | [8] -0.202 | alisertib -0.015 | gefitinib -0.022

ZNF593 (UniProt O00488)
inactive: vemurafenib 0.001 | [1] 0.037 | barasertib -0.026 | [2] -0.174 | volasertib -0.034 | [3] 0.078 | [4] -0.012 | [5] 0.016 | saracatinib -0.012 | sotrastaurin -0.105 | alvocidib -0.005 | Tubastatin A -0.07 | [6] -0.135 | defactinib 0.044 | [7] -0.011 | encorafenib -0.006 | [8] -0.088 | [9] 0.231

Taken from the listing (two entries):
ZNF629 (UniProt Q9UEG4)
inactive: vemurafenib 0.104 | [1] 0.016 | barasertib 0.128 | [2] 0.144 | volasertib -0.014 | [3] -0.001 | [4] -0.013 | [5] -0.072 | saracatinib -0.033 | sotrastaurin 0.042 | alvocidib -0.011 | Tubastatin A -0.028 | [6] 0.043 | defactinib 0.064 | [7] 0.045 | encorafenib -0.014 | [8] -0.086 | alisertib -0.084 | [9] -0.013 | gefitinib -0.064

ZW10 (UniProt O43264)
inactive: vemurafenib 0.027 | [1] 0.017 | barasertib 0.029 | [2] -0.019 | volasertib -0.06 | [3] 0.031 | [4] -0.04 | [5] -0.078 | saracatinib 0.034 | sotrastaurin 0.021 | alvocidib -0.003 | Tubastatin A -0.032 | [6] 0.003 | defactinib 0.035 | [7] -0.015 | encorafenib 0.047 | [8] 0.017 | alisertib -0.001 | [9] 0.017 | gefitinib -0.019

(further entries)

ZRANB2 (UniProt O95218)
inactive: vemurafenib 0.002 | [1] -0.003 | barasertib -0.003 | [2] 0.02 | volasertib 0.022 | [3] -0.005 | [4] 0.056 | [5] -0.008 | saracatinib 0.017 | sotrastaurin -0.091 | alvocidib 0.007 | Tubastatin A 0.056 | [6] 0.019 | defactinib 0.019 | [7] 0.017 | encorafenib 0.029 | [8] -0.033 | alisertib 0.015 | [9] -0.01 | gefitinib -0.068

ZKSCAN3 (UniProt Q9BRR0)
inactive: vemurafenib 0.108 | [1] 0.308 | barasertib 0.076 | [2] 0.142 | volasertib -0.306 | [3] 0.056 | [4] -0.167 | [5] 0.088 | saracatinib -0.035 | sotrastaurin -0.006 | alvocidib -0.078 | Tubastatin A -0.035 | [6] 0.029 | defactinib -0.232 | [7] 0.014 | encorafenib -0.028 | [8] -0.041 | [9] 0.093

ZNF148 (UniProt Q9UQR1)
inactive: vemurafenib -0.014 | barasertib 0.184 | [2] 0.068 | [3] 0.033 | [4] -0.247 | [5] 0.036 | saracatinib 0.036 | sotrastaurin -0.045 | alvocidib -0.322 | Tubastatin A -0.001 | [6] 0.009 | defactinib -0.043 | [7] -0.027 | encorafenib 0.024 | [8] -0.025 | alisertib -0.01 | gefitinib -0.218

ZNF768 (UniProt Q9H5H4)
inactive: vemurafenib -0.065 | [1] 0.011 | barasertib -0.023 | [2] 0.036 | volasertib -0.028 | [3] -0.001 | [4] -0.071 | [5] -0.01 | saracatinib -0.024 | sotrastaurin -0.062 | alvocidib -0.13 | Tubastatin A -0.03 | [6] -0.007 | defactinib 0.068 | [7] -0.019 | encorafenib -0.021 | [8] 0 | alisertib -0.01 | [9] -0.016 | gefitinib 0.028
